The list shows a part of the results. Further columns of the screen follow, without active or inactive calls. Most of these compounds were active or inconclusive in the main read-out, so they are no random draw. Words in brackets tell the shape of the fitted curve; partial curves, single points and poor fits give uncertain potencies.
Test: qHTS Assay for Lipid Storage Modulators in Drosophila S3 Cells;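 for cell number change: cells counted by Cell Tracker Red CMTPX staining in the red channel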
Conditions: BODIPY lipid droplet fluorescence, 18-24 h; for cell number change: measured here: cell count max response, cells fed with added oleic acid
Outline: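 Drosophila S3 cells loaded with oleic acid (400 uM, as added) and compounds at several concentrations; lipid droplets imaged by 488-nm laser-scanning cytometry, 500–530 nm intensity and object ratio to cell channel. Percent activity normalized to 20 uM Triacsin C.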

[1] = measured here: lipid fluorescence (Fed channel) AC50, cells fed with added oleic acid
[2] = measured here: cell number channel AC50, cells fed with added oleic acid

Compound: CC(C)(C)C(=O)Nc1ccnn1C1CCN(C(=O)c2ccc(Cl)cc2F)CC1
- cell number change: 1.65%
- AC50 [1]: 18.4 µM [falling, single point]

Compound: C=CCNC(=S)NNc1nc(Nc2ccccc2)nc(N2CCCCC2)n1
- cell number change: -12.1%
- AC50 [1]: 0.13 µM [falling, full curve, poor fit]

Compound: CC(=O)c1cccc(NC(=O)CC2S/C(=N/N=C3CCCCCC3)NC2=O)c1 (centres undefined)
- AC50 [1]: 29.1 µM [falling, single point]

Compound: Cc1[nH]n(-c2ccccc2)c(=O)c1/C=C1\C=NN=C1c1ccccc1
- cell number change: -33.3%
- AC50 [2]: 14.6 µM [falling, single point]
- AC50 [1]: 29.1 µM [falling, single point]

Compound: CC1CCCC(NC(=O)NC(=O)CCl)C1C (centres undefined)
- cell number change: -49%
- AC50 [2]: 16.4 µM [falling, single point]
- AC50 [1]: 29.1 µM [falling, single point]

Compound: CC(C(=O)Nc1ccc2c(c1)OCO2)N(c1ccc(Cl)cc1)S(C)(=O)=O (centres undefined)
- cell number change: -6.61%

Compound: Cc1ccc(NC(=O)c2cnc(SCC(=O)NCC3CCCO3)n(C)c2=O)cc1 (centres undefined)
- cell number change: -35.6%
- AC50 [2]: 25.9 µM [falling, single point]

Compound: CCOC(=O)N1CCN(S(=O)(=O)c2ccc(C(=O)Nc3sc4c(c3C(N)=O)CCN(CC)C4)cc2)CC1
- cell number change: 15.3%
- AC50 [1]: 18.4 µM [rising, single point]

Compound: CN=C1S/C(=C\c2ccc(OCC(=O)OC)c(OC)c2)C(=O)N1C
- cell number change: -7.62%

Compound: Cc1cc(C(=O)NC(C)Cc2ccccc2)cc(C)c1[N+](=O)[O-] (centres undefined)
- cell number change: 42.1%
- AC50 [2]: 4.61 µM [rising, partial curve, poor fit]
- AC50 [1]: 1.16 µM [rising, full curve, poor fit]

Compound: O=C(CN1CCCCC1)Nc1c2c(nc3ccccc13)N(c1ccccc1)CC2
- cell number change: -33%

Compound: Cn1c(CSCc2ccccc2)nnc1SCC(=O)Nc1nccs1
- cell number change: -16.9%
- AC50 [1]: 20.6 µM [falling, single point]

Compound: COc1c(C)cc(C(=O)C2CCCN(C(=O)C3=C(C)OCCO3)C2)cc1C (centres undefined)
- cell number change: -42.1%
- AC50 [2]: 23.1 µM [falling, single point]
- AC50 [1]: 14.6 µM [falling, partial curve]

Compound: CCn1c(C)cc2c(c1=O)C(c1ccncc1)C(C#N)=C(N)O2 (centres undefined)
- cell number change: 7.45%
- AC50 [1]: 0.82 µM [falling, full curve]

Compound: COc1ccc(S(=O)(=O)NCCC(=O)NCc2ccc(F)cc2)cc1
- cell number change: 117%
- AC50 [2]: 5.17 µM [falling, partial curve]
- AC50 [1]: 3.26 µM [falling, single point]

Compound: CCOC(=O)NC(=O)CSc1nnnn1-c1ccccc1
- cell number change: 2.29%

Compound: O=C(COC(=O)/C=C/c1ccccc1Cl)NCCc1ccc(Cl)cc1Cl
- AC50 [1]: 18.4 µM [falling, single point]

Compound: CCc1ccccc1Nc1nc(N)nc(COC(=O)c2c(C)noc2C)n1
- cell number change: 31.7%
- AC50 [2]: 0.326 µM [rising, full curve, poor fit]
- AC50 [1]: 0.00517 µM [falling, full curve, poor fit]

Compound: COCc1cc(CN2CCCC2)c(O)c2ncccc12
- cell number change: -62.1%
- AC50 [2]: 20.6 µM [falling, single point]
- AC50 [1]: 29.1 µM [falling, single point]

Compound: O=C(NCc1cccc(CNC(=O)c2ccco2)c1)c1ccco1
- cell number change: 3.13%
- AC50 [1]: 0.58 µM [rising, single point]

Compound: COc1ccc(CN2C(=O)C(Cc3ccccc3)Nc3ncnc(N4CCOCC4)c32)cc1 (centres undefined)
- cell number change: 16.1%
- AC50 [1]: 23.1 µM [rising, single point]

Compound: Cc1cccc(Cn2c(O)c(N=NC(=S)Nc3ccccc3F)c3ccccc32)c1
- cell number change: -44.5%
- AC50 [2]: 18.4 µM [falling, single point]
- AC50 [1]: 14.6 µM [falling, partial curve]

Compound: O=C(COC(=O)/C=C/c1ccccc1[N+](=O)[O-])Nc1ccc(OC(F)F)cc1
- cell number change: 13.8%

Compound: CC(=O)N/C(=C\c1ccccc1)C(=O)Nc1ccccc1C
- cell number change: 1.74%
- AC50 [1]: 6.51 µM [falling, single point]

Compound: CCN1CCN(c2ccc(Cl)cc2NC(=O)c2ccco2)CC1
- cell number change: -20.1%
- AC50 [2]: 0.0058 µM [falling, full curve, poor fit]
- AC50 [1]: 6.51 µM [falling, single point]

Compound: Cc1ccccc1N1C(=O)CC1(C#N)c1ccc(OCc2ccccc2)cc1 (centres undefined)
- cell number change: -41.5%
- AC50 [2]: 29.1 µM [falling, single point]
- AC50 [1]: 0.461 µM [rising, partial curve, poor fit]

Compound: O=[N+]([O-])c1ccc(S(=O)(=O)NCC(c2cccnc2)N2CCc3ccccc3C2)cc1 (centres undefined)
- cell number change: 58.9%
- AC50 [2]: 29.1 µM [rising, single point]

Compound: OCCC1CN(Cc2cccn2-c2nccs2)CCN1Cc1ccccc1 (centres undefined)
- cell number change: 17.2%

Compound: N#CC/C(N)=N/Nc1nc2ccccc2nc1Cc1ccccc1
- cell number change: -9.04%
- AC50 [1]: 16.4 µM [falling, single point]

Compound: CC(=O)C1=C(O)C(=O)N(c2ccc(C)cc2)C1c1ccc([N+](=O)[O-])cc1 (centres undefined)
- cell number change: 37.3%
- AC50 [2]: 0.651 µM [falling, partial curve]
- AC50 [1]: 1.16 µM [falling, full curve]

Compound: COc1ccc(NC2=CC(=O)N(C)C2=O)cc1
- cell number change: 36.6%
- AC50 [2]: 29.1 µM [rising, single point]
- AC50 [1]: 29.1 µM [rising, single point]

Compound: CN(C)S(=O)(=O)c1cccc(NC(=O)COC(=O)/C=C/c2cccs2)c1
- AC50 [1]: 6.51 µM [falling, single point]

Compound: O=C(Nc1cccc(Cl)c1)N1CCOCC1
- cell number change: 15.9%
- AC50 [1]: 18.4 µM [falling, partial curve, poor fit]

Compound: C=C(C)CSc1nc(N)c2c(C)c(C)sc2n1
- AC50 [2]: 1.03 µM [rising, partial curve]
- AC50 [1]: 0.058 µM [rising, full curve]

Compound: Nc1nc(SCC(=O)N2CCOCC2)n[nH]1
- cell number change: -13.1%
- AC50 [1]: 18.4 µM [falling, single point]

Compound: O=C1NC(=O)C2C3c4ccccc4C(c4ccccc43)C12 (centres undefined)
- cell number change: 1.38%
- AC50 [1]: 6.51 µM [falling, single point]

Compound: CCOC(=O)Nc1ccc(=O)n(Cc2c(Cl)cccc2Cl)c1
- cell number change: 24.4%
- AC50 [1]: 25.9 µM [rising, single point]

Compound: CCc1ccc(NC(=O)Cc2cn(C)c3ccccc23)cc1
- cell number change: 0.913%

Compound: CN(C)C(CNC(=O)C1CCN(S(=O)(=O)c2cccc(Cl)c2Cl)CC1)c1ccccc1 (centres undefined)
- cell number change: 27%
- AC50 [1]: 14.6 µM [rising, partial curve]

Compound: COc1cc(CNCc2ccc(OC)c3ccccc23)cc(OC)c1OC
- cell number change: -40.7%
- AC50 [2]: 16.4 µM [falling, single point]

Compound: CCN(C(=O)CSc1nnc(Cc2ccccc2F)n1N)C1CCS(=O)(=O)C1 (centres undefined)
- AC50 [1]: 6.51 µM [falling, partial curve]

Compound: Clc1nssc1=Nc1nncs1
- cell number change: -84.6%
- AC50 [2]: 5.17 µM [falling, single point]
- AC50 [1]: 20.6 µM [falling, single point]

Compound: Cc1cc(N2C(=O)C3C4C=CC(C4)C3C2=O)ccc1NC(=O)c1cccs1 (centres undefined)
- cell number change: -4.94%
- AC50 [1]: 4.11 µM [rising, single point]

Compound: COc1c(OC(C)=O)ccc(/C=C/c2ccc3ccccc3n2)c1[N+](=O)[O-]
- cell number change: -18.8%

Compound: CC(C)CCC1(CCNC(C)c2cccs2)CCOC(C)(C)C1 (centres undefined)
- cell number change: -16.3%
- AC50 [1]: 0.146 µM [falling, full curve, poor fit]

Compound: COc1cc2cc(Oc3ccc4ccc(=O)oc4c3)c(=O)oc2cc1OC(=O)C=C(C)C
- cell number change: 10.5%
- AC50 [1]: 1.64 µM [rising, partial curve, poor fit]

Compound: COc1cc(/C=N/NC(=O)c2cccnc2)ccc1OS(=O)(=O)c1ccc(F)cc1
- AC50 [2]: 0.461 µM [rising, full curve]
- AC50 [1]: 0.731 µM [rising, full curve]

Compound: O=C(Nc1ccncc1)c1ccc2c(c1)C(=O)N(C1CCCCC1)C2=O
- cell number change: -51.7%
- AC50 [2]: 0.092 µM [falling, full curve, poor fit]
- AC50 [1]: 0.13 µM [falling, full curve, poor fit]

Compound: COc1cc(C2/C(=C(\O)c3ccc4c(c3)OCCO4)C(=O)C(=O)N2c2nnc(C)s2)cc(OC)c1OC (centres undefined)
- cell number change: 11.3%
- AC50 [1]: 23.1 µM [rising, single point]

Compound: CC(C)(C)C(=O)/C=c1\s/c(=C\c2ccc(-c3ccc([N+](=O)[O-])cc3)o2)c(=O)n1CC(=O)NC(N)=O
- AC50 [1]: 2.06 µM [falling, full curve, poor fit]

Compound: COc1ccc(NC(=O)Cn2nc(C)c3ccccc3c2=O)cc1
- cell number change: 9.82%

Compound: Cc1ccc(C)c(OCC(=O)N2CCOCC2)c1
- cell number change: 15.2%
- AC50 [1]: 29.1 µM [rising, single point]

Compound: CCCCC(CC)C(=O)Nc1cc(C(=O)NCCC)ccc1N1CCC2(CC1)CC(c1cccc(Br)c1)=NO2 (centres undefined)
- cell number change: -8.2%
- AC50 [1]: 29.1 µM [rising, single point]

Compound: CC(C)CNC(=O)c1ccccc1NC(=O)CCSc1ccccc1
- cell number change: 4.87%
- AC50 [1]: 4.61 µM [rising, partial curve]

Compound: COCCn1ccc2c(OCC(=O)NCCc3ccc(OC)c(OC)c3)cccc2c1=O
- cell number change: -1.6%
- AC50 [1]: 6.51 µM [rising, single point]

Compound: CCO[C@@H]1OC(C(=O)N2CCN(Cc3ccccc3)CC2)=C[C@H](c2cn(C(C)=O)c3ccccc23)[C@H]1CCCO
- cell number change: -16.3%
- AC50 [1]: 0.651 µM [falling, single point]

Compound: CC(=O)c1ccc(NC(=O)c2ccc3nc(C)sc3c2)cc1
- cell number change: 2.93%

Compound: Cc1noc(C)c1S(=O)(=O)N1CCCCC1
- AC50 [1]: 1.3 µM [rising, full curve, poor fit]

— PubChem BioAssay AID2685 (National Center for Advancing Translational Sciences (NCATS), 2010)
